Results from publication PMC7965737 (Bioconjugate chemistry, 2019).
pIC50: −log10 of the molar value. Counter-ions that a name gives are not always drawn.

Tested on: MDA-MB-231
Assay: MTT cytotoxicity assay, MDA-MB-231
Format: cell-based, Human
Settings: MDA-MB-231 breast cancer cell line, serum-free media, 48 h

`COc1cccc2c1C(=O)c1c(O)c3c(c(O)c1C2=O)C[C@@](O)(C(=O)CO)C[C@@H]3O[C@H]1C[C@H](N)[C@H](O)[C@H](C)O1` [Dox, Doxorubicin hydrochloride] gave a pIC50 of 5.82.
